Patent publication US11712480 (dated 2023)

Experiment: general procedure: solution-phase peptide synthesis; HATU/DIPEA; DMT-MM or 2-chloro-4,6-dimethoxy-1,3,5-triazine with N-methyl morpho
Conditions: late stage modification step

Substance: 1-(21-amino-4,7,10,13,16,19-hexaoxahenicosan-1-oyl)-2-methyl-L-prolyl-N-[(3R,4S,5S)-1-{(2S)-2-[(1R,2R)-3-{[(1S)-1-carboxy-2-phenylethyl]amino}-1-methoxy-2-methyl-3-oxopropyl]pyrrolidin-1-yl}-3-methoxy-5-methyl-1-oxoheptan-4-yl]
- step yield (trifluoroacetic acid salt): 71%

Substance: N^2-acetyl-N^6-{[2-(methylsulfonyl)pyrimidin-5-yl]carbonyl}-L-lysyl-L-valyl-N-{4-[(8S,11S,12R)-11-[(2S)-butan-2-yl]-12-(2-{(2S)-2-[(1R,2R)-1-methoxy-2-methyl-3-oxo-3-{[(1S)-2-phenyl-1-(1,3-thiazol-2-yl)ethyl]amino}propyl]pyrrolidin-1-yl}-2-oxoethyl)-5,5,10-trimethyl-3,6,9-trioxo-8-(propan-2-yl)-2,13-dioxa-4,7,10-triazatetradec-1-yl]phenyl}-N^5-carbamoyl-L-ornithinamide
- step yield (trifluoroacetic acid salt (some compounds)): 89%
